Test results: PMC4534193, “Binding of the Lactococcal Drug Dependent Transcriptional Regulator LmrR to Its Ligands and Responsive Promoter Regions” (PLoS ONE, 2015)
Construct, isoform or probe ends are uncertain for at least one entry.

Chains of the proteins cited; added tags and fusions are not shown.
UniProt A2RI36, entry or part of it: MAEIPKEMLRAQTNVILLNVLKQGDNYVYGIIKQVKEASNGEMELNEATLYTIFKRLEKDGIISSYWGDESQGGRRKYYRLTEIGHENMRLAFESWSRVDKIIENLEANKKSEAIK

Biological target: LmrR-Strep (Lactococcus lactis) (UniProt A2RI36)
Assay: MST
Details: apparent Kd, MST: 20 mM Tris-HCl pH 8.0, 1 mM EDTA, 50 nM Cy5-DNA, 30 min incubation at 30 C, 30% LED, 40% laser power (30% laser for PlmrR), Hill fit, recombinant protein, protein details: Strep-tag

Sequence	Kd (50 uM riboflavin, label: 5'-Cy5 on forward strand, probe letters rebuilt from the primers and the genome)	Kd (no riboflavin, Hill coefficient 1.78 +/- 0.17, label: 5'-Cy5 on forward strand, probe letters rebuilt from the primers and the genome)	Kd (50 uM riboflavin, 30% laser power, probe letters rebuilt from the primers and the …)
AAGATTGAGAATAAGGCAACCCATTTATGCTTCATGATTGATTTGAAAATCATAAAATTCCTTTCTAGAGTTAAATAATGTAAACTACTTTACATTAAATTGAATTTTCAATTTCATTTTACTTCAAAATAATTTCAATAAATTTTTTGAGAAGATAATTATAACATTATTTTTTTTAGTAAACAAGCATTAATTGTTAATGCTGTTAAAGATTACAATAGTTAGTTTCATAAATGGTAAACTAACAAAAATATTGTAACGCTTTTTAAAGTTTAAGTCAACGATTTACGACGTTATTTGTATCTTCTTATGTTTTTATAAATTTAGAATTTAAAGTAAGGAATGAATCG (double strand) [PlmrCD (lmrCD promoter/operator region)]	0.195 µM	0.0821 µM	
CTCCTTGTTTTAGGACATTGAGCAAAATTACATTGGTTTGGGCTCGTAACATTTCTTTTGGTATTTCTGCCATTCTTTTTCCTTTCTATCATTTTAAACAAAGTATATTATACTTCACATTACTATGTAAGTCAAGGTACTTAAACTATTTATATAATATTTTATTTTTGACGACTTTCTACTATATAAGATAAGAAAAAATCATCTCCG (double strand) [PlmrR (lmrR promoter/operator region)]			5.12 µM
